Measurements published in patent US20150118311A1, “Highly Penetrative Nanocarriers for Treatment of CNS Disease” (priority 2012, published 2015).

System: GS5 cells
Experiment: GS5 cell proliferation/viability (MTT, AlamarBlue)
Assay type: cell-based
Settings: Homo sapiens, 72 h, three days after treatment, read-out: IC50 of candidate drugs on GS5 cells

COc1ccc(CCN2CCC(Nc3nc4ccccc4n3Cc3ccc(F)cc3)CC2)cc1 [Astemizole]
IC50: 3.2 µM
